Experimental data taken from PubChem BioAssay AID540256 (National Center for Advancing Translational Sciences (NCATS), 2011).
Screen size: about 300,000 compounds; about 3,700 (1.2%) were called active. This list was built around the results that the source calls inconclusive (neither active nor inactive); the mix of calls is not that of the screen. The call rests on the fitted dose curve; tested in HEK293 cells. Potencies of inconclusive entries are doubtful fits and often do not repeat.

assay: qHTS for Inhibitors of binding or entry into cells for Lassa Virus; conditions: Lassa virus pseudotype entry inhibition, cell reporter; series mostly up to 37.9 µM; further: nearly all actives have a fitted effect of over 50% in size
Potency means the concentration at half of the fitted maximal effect.

Question: For `CCC(=O)N1CCN(c2ccc(NC(=O)c3cccs3)cc2)CC1`, which Potency is on record?
Answer: inactive

Question: With `Cc1cc(C(=O)NC2=NCCS2)cs1` as the molecule, how does the Potency read?
Answer: inconclusive: 29.1 µM [inhibitor, single point]

Question: For `CCN(CC)S(=O)(=O)c1ccc(S(=O)(=O)N(CC(=O)Nc2ccccc2)Cc2ccco2)cc1`, which Potency is on record?
Answer: inactive

Question: For `COc1ccc(CC(=O)NC2CC(=O)N(c3cccc(F)c3)C2)cc1OC` (configuration not stated), which Potency is on record?
Answer: inconclusive: 14.1 µM [activator, partial curve, poor fit]

Question: With `O=C1c2cccc(OCC(=O)N3CCCc4ccccc43)c2CCN1Cc1ccc(Br)cc1` as the molecule, how does the Potency read?
Answer: active: 20.6 µM

Question: For `C=CS(=O)(=O)c1ccc(Oc2ccc(S(=O)(=O)C=C)cc2)cc1`, which Potency is on record?
Answer: active: 6.51 µM

Question: For `O=C(Nc1ccc(Br)cc1)N1CCCCC1`, which Potency is on record?
Answer: inconclusive: 0.562 µM [inhibitor, full curve, poor fit]

Question: For `COC(=O)[C@@]1(Cc2ccc(OC)cc2)[C@H]2c3cc(C(=O)N4CCCC4)n(Cc4ccc(OC)c(OC)c4)c3C[C@H]2CN1C(=O)c1ccccc1`, which Potency is on record?
Answer: inconclusive: 29.1 µM [inhibitor, single point]

Question: For `CCOC(=O)N1CCC(N2CCN(S(=O)(=O)c3ccc(NC(C)=O)cc3)CC2)CC1`, which Potency is on record?
Answer: inactive

Question: For `N#Cc1cc(C(=O)c2ccccc2OCC(=O)Nc2ccccc2Cl)cn(C2CCCCC2)c1=O`, which Potency is on record?
Answer: inconclusive: 0.92 µM [inhibitor, full curve]

Question: Which Potency does the source give for `Cc1ccoc1C(=O)Nc1ccc2ccccc2c1` here?
Answer: active: 10 µM

Question: Which Potency does the source give for `CCOc1cc(C(=O)Nc2ccc(S(=O)(=O)Nc3nnc(CC)s3)cc2)cc(OCC)c1OCC` here?
Answer: inconclusive: 3.55 µM [inhibitor, full curve]

Question: With `CNC(=S)N/N=C(\C)c1ccc2c(c1)OCCO2` as the molecule, how does the Potency read?
Answer: inactive

Question: With `COn1c2c(c3c4nonc4ccc31)CCCC2` as the molecule, how does the Potency read?
Answer: inconclusive: 16.4 µM [inhibitor, single point]

Question: For `O=S(=O)(c1ccc(Cl)cc1)N1CCN(c2ncnc3sccc23)CC1`, which Potency is on record?
Answer: inconclusive: 10 µM [inhibitor, partial curve]

Question: For `CC(C)Oc1ccc(CNC(=O)C2CCN(c3nc4ccccc4nc3C(F)(F)F)CC2)cc1`, which Potency is on record?
Answer: inconclusive: 1 µM [inhibitor, full curve, poor fit]

Question: With `CCn1cc(Cl)c(C(=O)N2N=C(c3ccc4ccccc4c3)CC2c2ccccc2O)n1` (configuration not stated) as the molecule, how does the Potency read?
Answer: inconclusive: 29.1 µM [inhibitor, single point]

Question: With `CCc1ccc2nc(Nc3ccc(OC)cc3OC)c(C#N)cc2c1` as the molecule, how does the Potency read?
Answer: inactive

Question: For `COCCn1c(-c2ccc3ccccc3c2)nc2c1c(=O)[nH]c(=O)n2CC(C)C`, which Potency is on record?
Answer: inconclusive: 11.2 µM [inhibitor, partial curve, poor fit]

Question: With `CC(C)C[C@H](NC(=O)OC(C)(C)C)C(=O)N1CCC(C(=O)N[C@@H](Cc2c[nH]c3ccccc23)C(=O)O)CC1` as the molecule, how does the Potency read?
Answer: inactive

Question: Which Potency does the source give for `COc1cc(OC)c(NC(=O)C2CCN(C(=O)c3sc4nc[nH]c(=O)c4c3C)CC2)cc1Cl` here?
Answer: inconclusive: 3.55 µM [activator, single point]

Question: With `COc1ccc2nc(NC(=O)Nc3ccccc3)sc2c1` as the molecule, how does the Potency read?
Answer: inconclusive: 11.6 µM [inhibitor, partial curve, poor fit]

Question: With `CC(=O)NC1CC(=O)N(c2ccc3c(c2)OCCO3)C1` (configuration not stated) as the molecule, how does the Potency read?
Answer: inactive

Question: For `CCC1CCCCN1C(=O)CSc1nnc(-c2cccs2)o1` (configuration not stated), which Potency is on record?
Answer: inconclusive: 12.6 µM [inhibitor, single point]

Question: Which Potency does the source give for `Cc1cccc(Oc2coc3cc(OC(=O)c4cc5ccccc5oc4=O)ccc3c2=O)c1` here?
Answer: inconclusive: 29.1 µM [activator, single point]

Question: For `Cc1ccccc1N1CCN(C2CCCN(C(=O)c3noc4c3CCCC4)C2)CC1` (configuration not stated), which Potency is on record?
Answer: inconclusive: 35.5 µM [inhibitor, single point]

Question: For `CC(NCc1nc2ccccc2n1C)C12CC3CC(CC(C3)C1)C2` (configuration not stated), which Potency is on record?
Answer: inconclusive: 35.5 µM [inhibitor, single point]

Question: For `COc1cc(CNc2nc3c(C)cc(C)cc3s2)ccc1O`, which Potency is on record?
Answer: inconclusive: 8.91 µM [inhibitor, partial curve, poor fit]

Question: With `O=c1oc2ccccc2cc1-c1nnc(Nc2ccc(Cl)cc2Cl)s1` as the molecule, how does the Potency read?
Answer: inconclusive: 1.78 µM [activator, partial curve, poor fit]

Question: For `CCOCC(=O)Nc1c(C(=O)Nc2ccc(OC)cc2OC)oc2ccccc12`, which Potency is on record?
Answer: inconclusive: 6.51 µM [activator, single point]

Question: Which Potency does the source give for `CCCn1c2ccccc2c2cnn(CC(=O)NCc3ccccc3Cl)c(=O)c21` here?
Answer: inactive

Question: With `O=C(NCc1ccc(Cl)cc1)c1ccc(COCC(F)(F)F)o1` as the molecule, how does the Potency read?
Answer: inconclusive: 35.5 µM [inhibitor, single point]

Question: Which Potency does the source give for `C=CCn1c(C)cc(-c2csc(NC(=O)C3=COCCO3)n2)c1C` here?
Answer: inactive

Question: With `CCN(CC)C(=O)CSc1nc2c(sc(=S)n2-c2ccccc2)c(=O)n1Cc1ccco1` as the molecule, how does the Potency read?
Answer: inconclusive: 20.6 µM [inhibitor, single point]

Question: With `CCCOc1ccc(/C=N/Nc2ccccc2[N+](=O)[O-])c(O)c1` as the molecule, how does the Potency read?
Answer: active: 2.82 µM

Question: With `O=C(NC1C2CC3CC(C2)CC1C3)c1ccc(Br)o1` (configuration not stated) as the molecule, how does the Potency read?
Answer: inconclusive: 22.4 µM [inhibitor, partial curve, poor fit]

Question: With `CCN1CCN(C(=S)Nc2ccc3nc(N4CCN(C)CC4)cc(C)c3c2)CC1` as the molecule, how does the Potency read?
Answer: active: 10 µM

Question: With `N#CC(c1ccncc1)(c1ncc(C(F)(F)F)cc1Cl)N1CCOCC1` (configuration not stated) as the molecule, how does the Potency read?
Answer: inconclusive: 28.2 µM [inhibitor, partial curve, poor fit]

Question: For `Cc1nonc1NC(=O)N1CCCC1`, which Potency is on record?
Answer: inconclusive: 4.11 µM [activator, full curve, poor fit]

Question: Which Potency does the source give for `N#C/C(=C\c1ccc(Cl)cc1)C(=O)Nc1cccnc1` here?
Answer: inconclusive: 1 µM [inhibitor, full curve, poor fit]

Question: Which Potency does the source give for `CCOc1ccc(NC(=O)CCN2CCN(S(=O)(=O)c3cc(Cl)ccc3OC)CC2)cc1` here?
Answer: inactive

Question: Which Potency does the source give for `Cc1ccc(C(=O)N(CC#N)CC#N)cc1C` here?
Answer: inconclusive: 20 µM [activator, partial curve, poor fit]

Question: Which Potency does the source give for `COc1ccc(N2C(=O)CSC(c3ccccc3)C2=O)cc1` (configuration not stated) here?
Answer: inactive

Question: With `CCC(Oc1ccccc1)C(=O)N1CCN(c2ccccn2)CC1` (configuration not stated) as the molecule, how does the Potency read?
Answer: inactive

Question: Which Potency does the source give for `Cc1cccc(-c2nc(CN3C(=O)CN=C(c4ccccc4)c4ccccc43)c(C)o2)c1` here?
Answer: inconclusive: 8.91 µM [inhibitor, partial curve, poor fit]

Question: With `COC(=O)[C@@]1(Cc2ccc(F)cc2)[C@H]2c3cc(C(=O)N(C)C)n(Cc4c(CO)[nH]cc(C)c4=O)c3C[C@H]2CN1C(=O)c1ccccc1` as the molecule, how does the Potency read?
Answer: inconclusive: 14.6 µM [inhibitor, partial curve, poor fit]

Question: For `C=CCn1c(SCC(=O)Nc2ccc(-c3nc4ccc(C)cc4s3)cc2)nnc1-c1ccncc1`, which Potency is on record?
Answer: inconclusive: 0.0891 µM [activator, full curve, poor fit]

Question: For `Cn1cccc1-c1cc(C(=O)N/N=C/c2ccc(Cl)cc2)[nH]n1`, which Potency is on record?
Answer: inconclusive: 0.562 µM [activator, full curve, poor fit]

Question: With `COc1cc(C)ccc1OCc1cc(C(=O)NCCN2CCOCC2)no1` as the molecule, how does the Potency read?
Answer: inconclusive: 14.1 µM [activator, partial curve, poor fit]

Question: For `COc1ccc(CCNC(=O)Cn2cnc3c(cnn3C(C)(C)C)c2=O)cc1OC`, which Potency is on record?
Answer: inactive

Question: Which Potency does the source give for `CN(CC(=O)Nc1ccccc1Cl)C(=O)CN1C(=O)C2CCCCC2C1=O` (configuration not stated) here?
Answer: inconclusive: 25.1 µM [inhibitor, single point]

Question: With `COC(=O)c1cc(NC(=O)Nc2ccc3snnc3c2)cc(C(=O)OC)c1` as the molecule, how does the Potency read?
Answer: inconclusive: 35.5 µM [activator, single point]

Question: For `CCc1nc(SCC(=O)N2c3ccccc3Sc3ccccc32)c2ccccc2n1`, which Potency is on record?
Answer: inconclusive: 16.4 µM [inhibitor, partial curve]

Question: With `O=S(=O)(c1ccccc1)N1CC1c1ccccc1` (configuration not stated) as the molecule, how does the Potency read?
Answer: inconclusive: 6.31 µM [inhibitor, single point]

Question: Which Potency does the source give for `OC[C@H]1O[C@@H](n2cnc3cncnc32)[C@H](O)[C@@H]1O` here?
Answer: inconclusive: 4.61 µM [inhibitor, full curve]

Question: With `CC(C)C(C)NC(=O)CSc1nc2scc(-c3ccco3)c2c(=O)n1-c1ccccc1` (configuration not stated) as the molecule, how does the Potency read?
Answer: inactive

Question: Which Potency does the source give for `COc1ccc(/C=C(\C#N)C(=O)OCC(=O)Nc2ccc(C(C)(C)C)cc2)cc1` here?
Answer: inconclusive: 14.1 µM [activator, single point]

Question: Which Potency does the source give for `Cn1cc2cc([N+](=O)[O-])ccc2n1` here?
Answer: inactive

Question: For `Nc1ccc2c(c1)[nH]c(=O)c1ccccc12`, which Potency is on record?
Answer: inconclusive: 6.31 µM [inhibitor, single point]

Question: With `COc1ccc(C2(c3ccc(OC)cc3)NC(=O)N(CC(=O)Nc3ccccc3C(F)(F)F)C2=O)cc1` as the molecule, how does the Potency read?
Answer: inconclusive: 11.2 µM [inhibitor, partial curve]

Question: For `O=C(Nc1cccc2ccccc12)c1ccc(Br)o1`, which Potency is on record?
Answer: inactive

Question: With `Cc1ccc(C)c(N2C(=O)N(Cc3c(F)cccc3Cl)c3ccccc3S2(=O)=O)c1` as the molecule, how does the Potency read?
Answer: inconclusive: 0.891 µM [inhibitor, full curve, poor fit]

Question: With `Cc1cccc(NC(=O)C(C)OC(=O)c2ccccc2NS(=O)(=O)c2cc(C)c(C)c([N+](=O)[O-])c2)c1` (configuration not stated) as the molecule, how does the Potency read?
Answer: inconclusive: 35.5 µM [inhibitor, single point]

Question: Which Potency does the source give for `Cc1ccc(C(=O)NCCc2c[nH]c3ccccc23)c(C)c1` here?
Answer: active: 11.2 µM

Question: With `CN(CC(=O)Nc1cccc(S(=O)(=O)N2CCCC2)c1)CC(=O)Nc1ccc(Cl)c(C(F)(F)F)c1` as the molecule, how does the Potency read?
Answer: inconclusive: 17.8 µM [inhibitor, single point]

Question: Which Potency does the source give for `CC(=O)OC1c2ccccc2C(=O)N1c1ccccc1C` (configuration not stated) here?
Answer: inactive

Question: With `O=C1CC(Sc2nnnn2-c2ccccc2)C(=O)N1c1cccc(Cl)c1` (configuration not stated) as the molecule, how does the Potency read?
Answer: inconclusive: 35.5 µM [inhibitor, single point]
